Measured values reported in the supplement of paper PMC7661543.
Differences between knockout arms are mostly noise.

System: MDA-MB-231
Assay: relative cell number vs DMSO control (72 h) (% of DMSO); higher = less growth inhibition (more cells)
Method: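 QMAP-Seq: a pool of 5 breast cancer cell lines (ZR-75-1, SKBR3, HCC-38, MDA-MB-231, BT-20), each carrying 12 doxycycline-inducible Cas9 sgRNA perturbations (11 knockouts plus non-targeting sgNT), was treated with compounds for 72 h at four 10-fold doses (10 nM-10 uM or 1 nM-1 uM range). Barcodes were amplified and sequenced, and cell number was interpolated from 293T spike-in standard curves. The result is expressed as % of the median of DMSO wells. Two biological replicates.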

O=c1[nH]cc(F)c(=O)[nH]1 [5-Fluorouracil]
Conditions	relative cell number
sgRNA knockout: sgATF3, 10 nM	98.4
sgRNA knockout: sgATF3, 100 nM	99.7
sgRNA knockout: sgATF3, 1000 nM	112
sgRNA knockout: sgATF3, 10000 nM	40.8
sgRNA knockout: sgATF4, 10 nM	82.6
sgRNA knockout: sgATF4, 100 nM	74.5
sgRNA knockout: sgATF4, 1000 nM	72.3
sgRNA knockout: sgATF4, 10000 nM	71.9
sgRNA knockout: sgATF6, 10 nM	94.4
sgRNA knockout: sgATF6, 100 nM	118
sgRNA knockout: sgATF6, 1000 nM	93.7
sgRNA knockout: sgATF6, 10000 nM	47.3
sgRNA knockout: sgATG7, 10 nM	88.2
sgRNA knockout: sgATG7, 100 nM	91.8
sgRNA knockout: sgATG7, 1000 nM	100
sgRNA knockout: sgATG7, 10000 nM	51.8
sgRNA knockout: sgERN1, 10 nM	99.5
sgRNA knockout: sgERN1, 100 nM	127
sgRNA knockout: sgERN1, 1000 nM	105
sgRNA knockout: sgERN1, 10000 nM	41.7
sgRNA knockout: sgHSF1, 10 nM	91.2
sgRNA knockout: sgHSF1, 100 nM	92.2
sgRNA knockout: sgHSF1, 1000 nM	101
sgRNA knockout: sgHSF1, 10000 nM	50.5
sgRNA knockout: sgHSF2, 10 nM	69.2
sgRNA knockout: sgHSF2, 100 nM	104
sgRNA knockout: sgHSF2, 1000 nM	83.8
sgRNA knockout: sgHSF2, 10000 nM	46.8
sgRNA knockout: sgKEAP1, 10 nM	97.4
sgRNA knockout: sgKEAP1, 100 nM	116
sgRNA knockout: sgKEAP1, 1000 nM	88.7
sgRNA knockout: sgKEAP1, 10000 nM	38.9
sgRNA knockout: sgNFE2L2, 10 nM	93
sgRNA knockout: sgNFE2L2, 100 nM	91.9
sgRNA knockout: sgNFE2L2, 1000 nM	120
sgRNA knockout: sgNFE2L2, 10000 nM	46
sgRNA knockout: sgSLC35F2, 10 nM	91.3
sgRNA knockout: sgSLC35F2, 100 nM	105
sgRNA knockout: sgSLC35F2, 1000 nM	85.7
sgRNA knockout: sgSLC35F2, 10000 nM	44.22
sgRNA knockout: sgXBP1, 10 nM	82.5
sgRNA knockout: sgXBP1, 100 nM	105
sgRNA knockout: sgXBP1, 1000 nM	116
sgRNA knockout: sgXBP1, 10000 nM	55.4

O=P1(N(CCCl)CCCl)NCCCO1 (configuration not stated) [Cyclophosphamide]
Conditions	relative cell number
sgRNA knockout: sgATF3, 10 nM	94.9
sgRNA knockout: sgATF3, 100 nM	113
sgRNA knockout: sgATF3, 1000 nM	109
sgRNA knockout: sgATF3, 10000 nM	106
sgRNA knockout: sgATF4, 10 nM	121
sgRNA knockout: sgATF4, 100 nM	78.5
sgRNA knockout: sgATF4, 1000 nM	116
sgRNA knockout: sgATF4, 10000 nM	105
sgRNA knockout: sgATF6, 10 nM	100.9
sgRNA knockout: sgATF6, 100 nM	104
sgRNA knockout: sgATF6, 1000 nM	92.8
sgRNA knockout: sgATF6, 10000 nM	92.5
sgRNA knockout: sgATG7, 10 nM	91.3
sgRNA knockout: sgATG7, 100 nM	90.7
sgRNA knockout: sgATG7, 1000 nM	128
sgRNA knockout: sgATG7, 10000 nM	79
sgRNA knockout: sgERN1, 10 nM	110
sgRNA knockout: sgERN1, 100 nM	95.6
sgRNA knockout: sgERN1, 1000 nM	131
sgRNA knockout: sgERN1, 10000 nM	106
sgRNA knockout: sgHSF1, 10 nM	118
sgRNA knockout: sgHSF1, 100 nM	94.5
sgRNA knockout: sgHSF1, 1000 nM	92.5
sgRNA knockout: sgHSF1, 10000 nM	93.9
sgRNA knockout: sgHSF2, 10 nM	102.58
sgRNA knockout: sgHSF2, 100 nM	94
sgRNA knockout: sgHSF2, 1000 nM	111
sgRNA knockout: sgHSF2, 10000 nM	86
sgRNA knockout: sgKEAP1, 10 nM	101
sgRNA knockout: sgKEAP1, 100 nM	95.9
sgRNA knockout: sgKEAP1, 1000 nM	108
sgRNA knockout: sgKEAP1, 10000 nM	99.5
sgRNA knockout: sgNFE2L2, 10 nM	116
sgRNA knockout: sgNFE2L2, 100 nM	98.11
sgRNA knockout: sgNFE2L2, 1000 nM	94.2
sgRNA knockout: sgNFE2L2, 10000 nM	103
sgRNA knockout: sgSLC35F2, 10 nM	79
sgRNA knockout: sgSLC35F2, 100 nM	113
sgRNA knockout: sgSLC35F2, 1000 nM	81.5
sgRNA knockout: sgSLC35F2, 10000 nM	81.6
sgRNA knockout: sgXBP1, 10 nM	98.7
sgRNA knockout: sgXBP1, 100 nM	103
sgRNA knockout: sgXBP1, 1000 nM	111
sgRNA knockout: sgXBP1, 10000 nM	103

Nc1ccccc1NC(=O)c1ccc(CNC(=O)OCc2cccnc2)cc1 [Entinostat]
Conditions	relative cell number
sgRNA knockout: sgATF3, 10 nM	107
sgRNA knockout: sgATF3, 100 nM	108
sgRNA knockout: sgATF3, 1000 nM	37.2
sgRNA knockout: sgATF3, 10000 nM	12.4
sgRNA knockout: sgATF4, 10 nM	123
sgRNA knockout: sgATF4, 100 nM	103
sgRNA knockout: sgATF4, 1000 nM	25
sgRNA knockout: sgATF4, 10000 nM	24.8
sgRNA knockout: sgATF6, 10 nM	121
sgRNA knockout: sgATF6, 100 nM	110.6
sgRNA knockout: sgATF6, 1000 nM	23.9
sgRNA knockout: sgATF6, 10000 nM	12.8
sgRNA knockout: sgATG7, 10 nM	83.8
sgRNA knockout: sgATG7, 100 nM	105
sgRNA knockout: sgATG7, 1000 nM	31.2
sgRNA knockout: sgATG7, 10000 nM	12.5
sgRNA knockout: sgERN1, 10 nM	89.5
sgRNA knockout: sgERN1, 100 nM	111
sgRNA knockout: sgERN1, 1000 nM	29.1
sgRNA knockout: sgERN1, 10000 nM	14.2
sgRNA knockout: sgHSF1, 10 nM	94.6
sgRNA knockout: sgHSF1, 100 nM	95.6
sgRNA knockout: sgHSF1, 1000 nM	42.2
sgRNA knockout: sgHSF1, 10000 nM	15.3
sgRNA knockout: sgHSF2, 10 nM	110
sgRNA knockout: sgHSF2, 100 nM	100
sgRNA knockout: sgHSF2, 1000 nM	36.4
sgRNA knockout: sgHSF2, 10000 nM	12.2
sgRNA knockout: sgKEAP1, 10 nM	93
sgRNA knockout: sgKEAP1, 100 nM	75.6
sgRNA knockout: sgKEAP1, 1000 nM	28
sgRNA knockout: sgKEAP1, 10000 nM	14.1
sgRNA knockout: sgNFE2L2, 10 nM	95.5
sgRNA knockout: sgNFE2L2, 100 nM	92.7
sgRNA knockout: sgNFE2L2, 1000 nM	31.2
sgRNA knockout: sgNFE2L2, 10000 nM	11.3
sgRNA knockout: sgSLC35F2, 10 nM	117
sgRNA knockout: sgSLC35F2, 100 nM	147
sgRNA knockout: sgSLC35F2, 1000 nM	31.9
sgRNA knockout: sgSLC35F2, 10000 nM	10.3
sgRNA knockout: sgXBP1, 10 nM	122
sgRNA knockout: sgXBP1, 100 nM	115
sgRNA knockout: sgXBP1, 1000 nM	23.9
sgRNA knockout: sgXBP1, 10000 nM	10.2
